{"source": "patent US7893286B2", "about": "“Method for the synthesis of phospholipid ethers” (Cellectar, Inc., priority 2007, dated 2011)", "key": {"[1]": {"system": "primary and/or metastatic tumors", "test": "Assessment of tumor accumulation in several animal tumor models", "assay_type": "in vivo"}, "[2]": {"system": "A549 human non-small cell lung cancer xenografts", "test": "Antitumor effect of single-dose ^125I-NM404 on tumor volume in SCID mice bearing A549 xenografts", "assay_type": "in vivo", "conditions": "unlabeled compound (control group), 10-week assessment period", "excerpt": "FIG. 2, illustrates antitumor effect of single-dose treatment with ^125I-125-NM404 at doses of 50 (⊚), 150 (□), 250 (⋄) and 500 (∘) μCi in SCID mice bearing A549 human non-small cell lung cancer xenografts. In this figure, control animals show rapidly growing tumors over the 10-week assessment period.\nFIG. 2 summarizes investigations into the efficacy of ^125I-NM404 treatment. These investigations provided assessments of tumor volume were made until 10 weeks post-injection or until no animal in the control group is alive, whatever came first. Summarizing the results, control animals show rapidly growing tumors over the 10-week assessment period. […] Tumor volumes are stable and same tumors appear “collapsed” (the tumor surface has caved in). Additionally, FIG. 3 illustrates that hair above the tumors fell off confirming substantial accumulation of radioactivity in these tumors."}}, "note": "For at least one compound, name, drawing or mass did not settle the structure."}
{"smiles": "C[N+](C)(C)CCOP(=O)([O-])OCCCCCCCCCCCCCCCCCCc1ccc(I)cc1", "note": "[NM404, 18-[4-Iodophenyl]-octadecyl phosphocholine]", "values": [{"measurement": "accumulation in tumors", "setting": "[1]", "value": "accumulates in primary and/or metastatic tumors"}, {"measurement": "effect on tumor growth", "setting": "[2]", "value": "no substantial effect"}]}
